Data as given in PubChem BioAssay AID504793 (Drosophila RNAi Screening Center, 2011)

- Aim: 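Whole-genome screen for parts of the DNA damage checkpoint at G2/M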 (primary screen)
- Cells: Drosophila S2R+ cells
- Reagent: long dsRNA against Drosophila genes, about 0.25 µg dsRNA per well
- Timing: 4 days of dsRNA, then 4 hours of drug before read-out
- Challenge: doxorubicin 0.5 µM for 4 hours to cause double-strand breaks, in cells also given a low, harmless dose of dsRNA against nbs to sensitise the assay
- Detection: 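Mitotic index as the number of phospho-histone H3-positive cells in each well following doxorubicin, given as raw counts without normalisation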
- Scale: mitotic cells: higher = more cells in mitosis, weaker G2 arrest
- Active means: 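a call needs confirmation in secondary tests, with other dsRNAs and a check of mitotic timing without damage, not just a high primary count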
- Meaning of the calls: active = confirmed in follow-up tests; inactive = not confirmed
The deposit covers about 23,000 reagents; shown is a random part of those with a known target gene and a result. Over the whole deposit, 62 (0.27%) are marked active. 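Calls come from follow-up tests whose scores are not deposited, so confirmed genes may have low counts here; counts are not normalised per plate.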 The raw values are shown without normalisation. Names joined by + are all predicted targets of the reagent.

no.	predicted target	dsRNA	mitotic cells, replicate 1	mitotic cells, replicate 2	activity call
1	Hmt-1 (Heavy metal tolerance factor 1)	DRSC15555	8		inactive
2	CG32075	DRSC10622	9		inactive
3	CG32075	DRSC29881	4		inactive
4	CG42284	DRSC22094	11		inactive
5	CG42284	DRSC22342	7		inactive
6	CG32161	DRSC22128			inactive
7	Traf6 (TNF-receptor-associated factor 6)	DRSC18725	15		inactive
8	mRpS30 (mitochondrial ribosomal protein S30)	DRSC20107	8		inactive
9	Ugt305A1 (UDP-glycosyltransferase family 305 member A1)	DRSC08541	5		inactive
10	Ugt305A1 (UDP-glycosyltransferase family 305 member A1)	DRSC26426	4		inactive
11	CG3430	DRSC02713	6		inactive
12	CG13560	DRSC04198	4		inactive
13	CG13560	DRSC27479	9		inactive
14	CG6414	DRSC18401	13		inactive
15	CG15576	DRSC18064	13		inactive
16	CG14180 (retired record)	DRSC10179	3		inactive
17	CG14180 (retired record)	DRSC25107	8		inactive
18	Pu (Punch)	DRSC04645	10		inactive
19	Pu (Punch)	DRSC29066	4		inactive
20	drpr (draper)	DRSC08143	7		inactive
21	drpr (draper)	DRSC08525	6		inactive
22	Cfp1 (CXXC finger protein 1)	DRSC18128	12		inactive
23	Vha14-1 (Vacuolar H[+] ATPase 14kD subunit 1)	DRSC07571	15		inactive
24	Nha2 (Na[+]/H[+] hydrogen antiporter 2)	DRSC14689	7		inactive
25	Nha2 (Na[+]/H[+] hydrogen antiporter 2)	DRSC15619	8		inactive
26	Nha2 (Na[+]/H[+] hydrogen antiporter 2)	DRSC15623	9		inactive
27	lin (lines)	DRSC07644	1		inactive
28	lin (lines)	DRSC28074	12		inactive
29	aspr (asperous)	DRSC20689	5		inactive
30	aspr (asperous)	DRSC20690	9		inactive
31	Cul4 (Cullin 4)	DRSC07243	10		inactive
32	Cul4 (Cullin 4)	DRSC27185	13		inactive
33	Cec-Psi1 (Cecropin pseudogene 1)	DRSC21956	9		inactive
34	RpLP1 (Ribosomal protein LP1)	DRSC00783	5		inactive
35	RpLP1 (Ribosomal protein LP1)	DRSC22145	14		inactive
36	RpLP1 (Ribosomal protein LP1)	DRSC23411	5		inactive
37	CG17198 + CG17197	DRSC15190	11		inactive
38	CG17198 + CG17197	DRSC15191	8		inactive
39	Megf8 (Multiple EGF like domains 8)	DRSC03058	3		inactive
40	CG17698	DRSC11907	6		inactive
41	JMJD6 (Jumonji domain containing 6)	DRSC15787	10		inactive
42	JMJD6 (Jumonji domain containing 6)	DRSC26657	6		inactive
43	Spase22-23 (Spase 22/23-subunit)	DRSC15857	9		inactive
44	CG31122	DRSC16286	5		inactive
45	CG31122	DRSC23448	11		inactive
46	CG16721	DRSC18113	4		inactive
47	vn (vein)	DRSC23221	6		inactive
48	vn (vein)	DRSC26550	5		inactive
49	ABCB7 (ATP binding cassette subfamily B member 7)	DRSC08603	5		inactive
50	CstF50 (Cleavage stimulation factor 50 kD subunit)	DRSC15434	2		inactive
51	CG4781	DRSC04488	8		inactive
52	VhaPPA1-1 (Vacuolar H[+] ATPase PPA1 subunit 1)	DRSC16170	4		inactive
53	VhaPPA1-1 (Vacuolar H[+] ATPase PPA1 subunit 1)	DRSC24144	8		inactive
54	Ranbp21	DRSC19447	5	2	inactive
55	RpS27A (Ribosomal protein S27A)	DRSC03421	2		inactive
56	RpS27A (Ribosomal protein S27A)	DRSC30047	8		inactive
57	Fer3HCH (Ferritin 3 heavy chain homologue)	DRSC19892	17		inactive
58	Fer3HCH (Ferritin 3 heavy chain homologue)	DRSC26911	6		inactive
59	CG5023	DRSC15697	10		inactive
60	CG12964	DRSC23210	36		inactive
61	CG12964	DRSC29427	5		inactive
62	CIA30 (Complex I intermediate-associated protein, 30 kDa)	DRSC16266	3		inactive
63	dikar	DRSC09699	6		inactive
64	dikar	DRSC22261	13		inactive
65	dikar	DRSC26562	4		inactive
66	Atx-1 (Ataxin 1)	DRSC18365	11		inactive
67	Eip78C (Ecdysone-induced protein 78C)	DRSC23097	9		inactive
68	CG6974	DRSC16160	6		inactive
69	Dr (Drop)	DRSC17002	10	10	inactive
70	Dr (Drop)	DRSC22708	33		inactive
71	CG6931	DRSC10750	5		inactive
72	Pitslre	DRSC11874	7		inactive
73	Pitslre	DRSC23346	7		inactive
74	arx (asterix)	DRSC10386	3		inactive
75	CG42553	DRSC08356	8		inactive
76	Mocs2A + Mocs2B	DRSC13697	13		inactive
77	Mocs2A + Mocs2B	DRSC14219	5		inactive
78	CG17025 (retired record)	DRSC28651	3		inactive
79	cnk (connector enhancer of ksr)	DRSC07595	7		inactive
80	CG42818 + Ca-Ma2d	DRSC01963	5		inactive
81	CG42818 + Ca-Ma2d	DRSC29730	7		inactive
82	CG31075	DRSC16016	12		inactive
83	Mppe (Metallophosphoesterase)	DRSC07296	8		inactive
84	Lon (Lon protease)	DRSC11049	11		inactive
85	Lon (Lon protease)	DRSC26015	5		inactive
86	CG12698	DRSC19485	9		inactive
87	CG12698	DRSC27291	5		inactive
88	CG30049	DRSC21345	10		inactive
89	CG30049	DRSC26709	6		inactive
90	Ptp52F (Protein tyrosine phosphatase 52F)	DRSC06717	6		inactive
91	Shc (SHC-adaptor protein)	DRSC11284	5		inactive
92	CG18294 + 825-Oak + CG32214 + 2 more	DRSC22210	4		inactive
93	CG4880	DRSC19923	5		inactive
94	Zir (Zizimin-related)	DRSC00307	4		inactive
95	Cand1 (Cullin-associated and neddylation-dissociated 1)	DRSC01992	3		inactive
96	CG3257	DRSC04351	7		inactive
97	CG3257	DRSC27446	8		inactive
98	CG11449	DRSC11662	7		inactive
99	CG11449	DRSC29180	6		inactive
100	sordd2 + sordd1	DRSC20136	8		inactive
101	sordd2 + sordd1	DRSC28444	3		inactive
102	alt (aluminum tubes)	DRSC15315	9		inactive
103	alt (aluminum tubes)	DRSC28347	6		inactive
104	Rbfox1 (RNA-binding Fox protein 1)	DRSC09034	12		inactive
105	Rbfox1 (RNA-binding Fox protein 1)	DRSC21378	7		inactive
106	Rbfox1 (RNA-binding Fox protein 1)	DRSC22992	16		inactive
107	Rbfox1 (RNA-binding Fox protein 1)	DRSC25775	7		inactive
108	CG2233	DRSC18217	5		inactive
109	CG17111	DRSC15174	11		inactive
110	CG17111	DRSC26175	7		inactive
111	CG33284	DRSC22905	9		inactive
112	CG33284	DRSC29777	6		inactive
113	glob3 (globin 3)	DRSC12261	1		inactive
114	CG34234 + Dh44-R2	DRSC07278	3		inactive
115	CG12912	DRSC25772	4		inactive
116	CG11951	DRSC14442	13		inactive
117	CG11951	DRSC25645	8		inactive
118	D12	DRSC03311	2		inactive
119	CG31176	DRSC15038	14		inactive
120	CG31176	DRSC16021	12		inactive
121	TM9SF2 (Transmembrane 9 superfamily protein member 2)	DRSC03197	7		inactive
122	CG11594	DRSC08207	5		inactive
123	betaNACtes6 + betaNACtes3	DRSC27147	8		inactive
124	Rab9D + Rab9Fa + Rab9E	DRSC19853	12		inactive
125	CG15461	DRSC20532	6		inactive
126	CG4511	DRSC15589	6		inactive
127	CG4511	DRSC28640	5		inactive
128	sala (spalt-adjacent)	DRSC03605	4		inactive
129	sala (spalt-adjacent)	DRSC28864	7		inactive
130	GstD2 (Glutathione S transferase D2)	DRSC16684	2		inactive
131	GstD2 (Glutathione S transferase D2)	DRSC27903	7		inactive
132	Mpv17 (Mitochondrial inner membrane protein MPV17)	DRSC17198	9		inactive
133	eIF4E5 (eukaryotic translation initiation factor 4E5)	DRSC10975	4		inactive
134	eIF4E5 (eukaryotic translation initiation factor 4E5)	DRSC25877	8		inactive
135	CG31279	DRSC13158	5		inactive
136	ths (thisbe)	DRSC23123	23		inactive
137	ths (thisbe)	DRSC27271	8		inactive
138	CG1636	DRSC18111	6	15	inactive
139	NdufV3 (NADH:ubiquinone oxidoreductase subunit V3)	DRSC19423	8		inactive
140	NdufV3 (NADH:ubiquinone oxidoreductase subunit V3)	DRSC27236	4		inactive
